Measurements taken from patent publication US20100203114A1, “MICELLE ENCAPSULATION OF THERAPEUTIC AGENTS” (WARF - Wisconsin Alumni Research Foundation, priority 2007, published 2010).
Some of these results come from one statement about several compounds together.

Assay: Micelle drug loading and physical stability at various drug:polymer ratios (HPLC analysis)
Details: PEG-PLA 5K:6K micelles, paclitaxel and 17-AAG together

C=CCNC1=C2C[C@@H](C)C[C@H](OC)[C@H](O)[C@@H](C)/C=C(\C)[C@H](OC(N)=O)[C@@H](OC)/C=C\C=C(/C)C(=O)NC(=CC1=O)C2=O [17-AAG, 17-allylamino-17-demethoxygeldanamycin]
loading of each drug when both loaded together: 4 to 5 mg/mL
